Experimental data: PubChem BioAssay AID652243 (Drosophila RNAi Screening Center, 2013)
Screen: 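Knock-downs that decrease or increase androgen receptor reporter signal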 (primary screen). Cells: Drosophila S2R+ cells. Knock-down reagent: long dsRNA against Drosophila genes. Timing: 72 h (48 h, then 24 h hormone). Treatment: synthetic androgen R1881 at 10 nM for 24 h. Measured: 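Per-well raw luminescence of the androgen-driven firefly reporter and of the Renilla control, two replicates each, without normalisation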. Scale: firefly reporter light: higher = more light from androgen-responsive reporter; Renilla control light: higher = more constitutive control signal (cell number, transfection). Rule for the call: 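Hit when the log firefly-to-Renilla ratio dropped or increased by a fixed fold versus the mean of GFP or LacZ controls across duplicate plates; lowering cut given as 1.5 and as 3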. Calls: active = hit: reporter lowered or raised; inactive = no hit.
The deposit covers about 24,000 reagents; below is a random part of those with a known target gene and a result. In the full data, 246 (1%) were called active. 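Plates not normalised; calls are printed but the firefly/Renilla ratio behind them is not deposited; fold cut for lowering reported inconsistently.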 Raw values are not corrected between plates. Unmarked entries are inactive. Names joined by + are all predicted targets of the reagent. The record does not give: the amount of reagent.

CG14369 [DRSC14831] → firefly reporter light, replicate 1: 1.81e5; firefly reporter light, replicate 2: 1.75e5; Renilla control light, replicate 1: 3.14e6; Renilla control light, replicate 2: 2.84e6
CG14369 [DRSC25713] → firefly reporter light, replicate 1: 7.33e5; firefly reporter light, replicate 2: 6.74e5; Renilla control light, replicate 1: 1.44e6; Renilla control light, replicate 2: 1.68e6
CG6149 [DRSC10593] → firefly reporter light, replicate 1: 1.65e5; firefly reporter light, replicate 2: 1.67e5; Renilla control light, replicate 1: 1.70e6; Renilla control light, replicate 2: 1.76e6
beat-Ia (beaten path Ia) [DRSC03489] → firefly reporter light, replicate 1: 1.04e5; firefly reporter light, replicate 2: 1.64e5; Renilla control light, replicate 1: 1.04e6; Renilla control light, replicate 2: 1.86e6
beat-Ia (beaten path Ia) [DRSC25576] → firefly reporter light, replicate 1: 7.63e5; firefly reporter light, replicate 2: 1.09e6; Renilla control light, replicate 1: 9.68e5; Renilla control light, replicate 2: 1.10e6

Part of the list above, showing only “Renilla control light, replicate 2”:
CG14369 [DRSC25713]: 1.68e6
CG6149 [DRSC10593]: 1.76e6

The list goes on.
CG5013 [DRSC15695] → firefly reporter light, replicate 1: 1.11e5; firefly reporter light, replicate 2: 98078; Renilla control light, replicate 1: 1.64e6; Renilla control light, replicate 2: 1.77e6
crc (cryptocephal) [DRSC03513] → firefly reporter light, replicate 1: 1.77e5; firefly reporter light, replicate 2: 1.64e5; Renilla control light, replicate 1: 1.38e6; Renilla control light, replicate 2: 8.83e5
fd96Ca (forkhead domain 96Ca) [DRSC16946] → firefly reporter light, replicate 1: 90741; firefly reporter light, replicate 2: 1.73e5; Renilla control light, replicate 1: 1.77e6; Renilla control light, replicate 2: 2.05e6
fd96Ca (forkhead domain 96Ca) [DRSC23974] → firefly reporter light, replicate 1: 4.77e5; firefly reporter light, replicate 2: 4.25e5; Renilla control light, replicate 1: 6.40e5; Renilla control light, replicate 2: 5.51e5
CG34115 [DRSC38621] → firefly reporter light, replicate 1: 5.52e5; firefly reporter light, replicate 2: 5.48e5; Renilla control light, replicate 1: 1.79e6; Renilla control light, replicate 2: 1.30e6
CG31680 [DRSC21878] → firefly reporter light, replicate 1: 1.02e6; firefly reporter light, replicate 2: 7.08e5; Renilla control light, replicate 1: 1.31e6; Renilla control light, replicate 2: 1.15e6
scpr-A + scpr-C + scpr-B [DRSC15715] → firefly reporter light, replicate 1: 1.68e5; firefly reporter light, replicate 2: 1.54e5; Renilla control light, replicate 1: 2.49e6; Renilla control light, replicate 2: 1.30e6
